For the assay, the target named is monkey c-MET protein (monkey). Description: ForteBio (BLI) affinity assay. Background: In BLI a coated tip is dipped into the sample, and binding shifts an interference pattern.

Changes are numbered by the printed parent chain. No constants are given. Whether binding was seen depends on the method and setting. Some results given as binding are weak or reduced against the parent protein; the word gives no strength.

B1: anti-c-MET antibody 136 (antibody, V domains shown)
VH: EVQLQESGPGLVKPSETLSLTCTVSGGSVTSVNYYWKWIRQPPGKGLEWIGYISYSGNTNYNPSLKSRVTISVDTSKNQFSLKLSSVTAADTAVYYCVRAPYYYMDVWSKGTTVTVSS
VL: DIVMTQSPSSVSASVGDRVTITCRASQGISSWLAWYQQKPGKAPKLLIYAVSSLQSGVPSRFSGSGSGTDFTLTISSLQPEDFATYFCQQANSFPLTFGGGTKVEIK
In the case of B1, the binding entry is reported as “binds”.

B2: anti-c-MET antibody 187 (antibody, V domains shown)
VH: ELQLQESGPGLVKPSETLSLTCTVSGGSISSSSYYWGWIRQSPGKGLEWIGSRYYSGNTYYNPSLKSRVTMSVDTSKNQFSLKLRSVTAADTAVYYCARQVYDYWRDWGQGALVTVSS
VL: B1 VL with K45N, V51A, S53N, Q55P, D70V, F87Y, A91S
Regarding B2, the binding entry is “binds”.

Values taken from patent US20250223366A1, “MONOCLONAL ANTIBODIES AND BISPECIFIC ANTIBODY AGAINST C-MET” (BIOTHEUS INC., priority 2022, published 2025).
